Publication doi:10.1101/2020.01.19.911891
No constants are given. Whether binding was seen depends on the method and setting. Some binding calls cover weakened binding; strength is not graded here. Where a sequence is shown, tags or fusion partners need not be part of it.

The chains behind the UniProt entries cited, without tags or fusion partners.
UniProt Q9UK41, whole entry: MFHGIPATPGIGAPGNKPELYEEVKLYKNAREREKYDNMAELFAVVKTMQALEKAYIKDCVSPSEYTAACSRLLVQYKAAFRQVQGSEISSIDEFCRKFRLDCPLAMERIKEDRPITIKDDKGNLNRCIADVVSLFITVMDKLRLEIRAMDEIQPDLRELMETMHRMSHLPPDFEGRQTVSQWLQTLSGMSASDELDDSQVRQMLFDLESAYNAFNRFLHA

Biological target: T1, AKTIP fused to the Gal4 DNA-binding domain (human) (UniProt Q9H8T0)
T1 sequence: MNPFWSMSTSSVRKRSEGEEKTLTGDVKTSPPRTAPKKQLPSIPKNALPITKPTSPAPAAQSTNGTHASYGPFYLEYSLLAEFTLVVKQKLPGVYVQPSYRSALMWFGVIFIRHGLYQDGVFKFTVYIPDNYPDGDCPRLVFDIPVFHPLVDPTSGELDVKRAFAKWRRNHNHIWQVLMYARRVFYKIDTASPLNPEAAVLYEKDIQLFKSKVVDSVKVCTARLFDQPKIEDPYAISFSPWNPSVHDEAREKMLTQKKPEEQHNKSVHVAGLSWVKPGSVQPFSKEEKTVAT
Experiment: two-hybrid

Substance: VPS28 fused to the VP16 activation domain (from UniProt Q9UK41 1-221)
- binding: binds
